± gives the standard deviation of the averaged measurements. This is a selection; strong and weak results do not stand in their true shares.
Compound: Nc1ncnc2c1ncn2[C@@H]1O[C@H](COP(=O)(O)OP(=O)(O)OP(=O)(O)O)[C@@H](O)[C@H]1O [adenosine triphosphate]
Experiment: NP40-soluble protein abundance relative to vehicle (solubility fold change) (ratio); higher = more soluble protein in presence of ATP
How it was run: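 Jurkat crude lysate prepared with a Dounce homogeniser was treated at eight concentrations spanning 0.1 to 10 mM, 10 min at room temperature then 3 min at 37 °C. Solubilisation with 0.8% NP40 and benzonase and ultracentrifugation preceded TMT labelling of the supernatant for LC-MS/MS. Fold change against the detergent-processed vehicle was determined per replicate from vsn-normalised intensities, across three independent experiments.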

By UniProt entry, the sequences of proteins in these tests, tags left out. Where a name states a change or a piece, a line headed by the entry shows the natural chain unless it says otherwise.
UniProt Q96EQ0: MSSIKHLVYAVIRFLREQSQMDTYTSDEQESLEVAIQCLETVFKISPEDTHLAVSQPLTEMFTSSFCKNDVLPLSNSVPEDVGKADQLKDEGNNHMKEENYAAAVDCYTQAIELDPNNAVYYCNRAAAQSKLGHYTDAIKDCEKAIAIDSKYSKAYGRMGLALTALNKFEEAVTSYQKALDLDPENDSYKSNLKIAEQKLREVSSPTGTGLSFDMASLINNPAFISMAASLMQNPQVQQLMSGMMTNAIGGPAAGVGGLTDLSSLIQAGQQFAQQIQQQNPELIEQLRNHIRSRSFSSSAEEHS
UniProt Q96BN8, whole entry: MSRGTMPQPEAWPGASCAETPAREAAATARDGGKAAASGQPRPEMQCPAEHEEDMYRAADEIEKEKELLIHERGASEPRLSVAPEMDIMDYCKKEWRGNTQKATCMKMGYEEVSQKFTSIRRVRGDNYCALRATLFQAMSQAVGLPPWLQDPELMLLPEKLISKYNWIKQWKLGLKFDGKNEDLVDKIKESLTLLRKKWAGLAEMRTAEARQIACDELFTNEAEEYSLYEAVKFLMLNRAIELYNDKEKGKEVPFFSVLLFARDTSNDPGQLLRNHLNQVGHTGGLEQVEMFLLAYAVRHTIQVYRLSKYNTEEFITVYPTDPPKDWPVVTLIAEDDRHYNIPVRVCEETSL
UniProt Q96GX9: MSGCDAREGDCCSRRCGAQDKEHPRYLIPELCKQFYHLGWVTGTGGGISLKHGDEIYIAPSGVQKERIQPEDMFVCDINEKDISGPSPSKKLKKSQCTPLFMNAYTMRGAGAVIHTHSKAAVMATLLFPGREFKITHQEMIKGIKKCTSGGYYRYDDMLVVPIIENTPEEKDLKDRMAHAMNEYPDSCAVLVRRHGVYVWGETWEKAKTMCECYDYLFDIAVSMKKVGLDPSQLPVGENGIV
UniProt Q96F07, whole entry: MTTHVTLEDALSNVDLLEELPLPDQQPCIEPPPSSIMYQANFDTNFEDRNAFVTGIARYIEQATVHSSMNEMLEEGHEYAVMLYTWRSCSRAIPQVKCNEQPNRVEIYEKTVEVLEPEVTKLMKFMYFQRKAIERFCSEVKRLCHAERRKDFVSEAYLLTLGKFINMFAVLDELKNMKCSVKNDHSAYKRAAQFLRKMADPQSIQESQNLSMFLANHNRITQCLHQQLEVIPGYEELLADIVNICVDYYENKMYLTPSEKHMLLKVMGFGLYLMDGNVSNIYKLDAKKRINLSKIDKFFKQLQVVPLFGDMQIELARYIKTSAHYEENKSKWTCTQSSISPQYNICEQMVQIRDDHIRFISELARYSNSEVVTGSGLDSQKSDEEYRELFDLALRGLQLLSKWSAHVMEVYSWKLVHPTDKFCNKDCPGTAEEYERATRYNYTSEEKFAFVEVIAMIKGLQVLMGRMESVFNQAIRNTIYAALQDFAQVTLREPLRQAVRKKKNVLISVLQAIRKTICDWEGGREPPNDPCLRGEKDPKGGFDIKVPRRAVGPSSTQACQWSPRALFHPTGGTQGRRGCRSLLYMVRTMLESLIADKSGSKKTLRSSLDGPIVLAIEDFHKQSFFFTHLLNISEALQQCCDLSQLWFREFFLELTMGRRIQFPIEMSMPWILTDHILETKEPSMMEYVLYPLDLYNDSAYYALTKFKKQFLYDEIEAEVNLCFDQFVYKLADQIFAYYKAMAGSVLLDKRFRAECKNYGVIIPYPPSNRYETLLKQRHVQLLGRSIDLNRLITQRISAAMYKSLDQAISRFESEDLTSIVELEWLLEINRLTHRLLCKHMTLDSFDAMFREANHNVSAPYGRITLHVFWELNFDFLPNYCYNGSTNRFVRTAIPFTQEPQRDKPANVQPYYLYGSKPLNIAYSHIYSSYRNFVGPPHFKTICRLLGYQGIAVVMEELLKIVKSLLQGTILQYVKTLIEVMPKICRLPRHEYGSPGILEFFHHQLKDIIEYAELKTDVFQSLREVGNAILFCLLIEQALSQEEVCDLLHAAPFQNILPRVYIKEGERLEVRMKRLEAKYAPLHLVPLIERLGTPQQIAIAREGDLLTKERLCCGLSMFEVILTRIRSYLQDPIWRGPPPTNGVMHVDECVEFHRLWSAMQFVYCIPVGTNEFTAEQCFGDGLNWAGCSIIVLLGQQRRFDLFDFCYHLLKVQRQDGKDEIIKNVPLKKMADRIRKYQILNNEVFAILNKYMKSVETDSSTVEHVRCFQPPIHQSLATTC
UniProt Q96HA8: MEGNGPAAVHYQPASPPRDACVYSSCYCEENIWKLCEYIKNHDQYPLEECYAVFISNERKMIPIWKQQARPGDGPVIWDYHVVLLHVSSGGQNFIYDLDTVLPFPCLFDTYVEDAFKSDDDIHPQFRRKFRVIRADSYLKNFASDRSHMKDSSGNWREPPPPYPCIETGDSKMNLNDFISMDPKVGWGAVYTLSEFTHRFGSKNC
UniProt Q96QZ7: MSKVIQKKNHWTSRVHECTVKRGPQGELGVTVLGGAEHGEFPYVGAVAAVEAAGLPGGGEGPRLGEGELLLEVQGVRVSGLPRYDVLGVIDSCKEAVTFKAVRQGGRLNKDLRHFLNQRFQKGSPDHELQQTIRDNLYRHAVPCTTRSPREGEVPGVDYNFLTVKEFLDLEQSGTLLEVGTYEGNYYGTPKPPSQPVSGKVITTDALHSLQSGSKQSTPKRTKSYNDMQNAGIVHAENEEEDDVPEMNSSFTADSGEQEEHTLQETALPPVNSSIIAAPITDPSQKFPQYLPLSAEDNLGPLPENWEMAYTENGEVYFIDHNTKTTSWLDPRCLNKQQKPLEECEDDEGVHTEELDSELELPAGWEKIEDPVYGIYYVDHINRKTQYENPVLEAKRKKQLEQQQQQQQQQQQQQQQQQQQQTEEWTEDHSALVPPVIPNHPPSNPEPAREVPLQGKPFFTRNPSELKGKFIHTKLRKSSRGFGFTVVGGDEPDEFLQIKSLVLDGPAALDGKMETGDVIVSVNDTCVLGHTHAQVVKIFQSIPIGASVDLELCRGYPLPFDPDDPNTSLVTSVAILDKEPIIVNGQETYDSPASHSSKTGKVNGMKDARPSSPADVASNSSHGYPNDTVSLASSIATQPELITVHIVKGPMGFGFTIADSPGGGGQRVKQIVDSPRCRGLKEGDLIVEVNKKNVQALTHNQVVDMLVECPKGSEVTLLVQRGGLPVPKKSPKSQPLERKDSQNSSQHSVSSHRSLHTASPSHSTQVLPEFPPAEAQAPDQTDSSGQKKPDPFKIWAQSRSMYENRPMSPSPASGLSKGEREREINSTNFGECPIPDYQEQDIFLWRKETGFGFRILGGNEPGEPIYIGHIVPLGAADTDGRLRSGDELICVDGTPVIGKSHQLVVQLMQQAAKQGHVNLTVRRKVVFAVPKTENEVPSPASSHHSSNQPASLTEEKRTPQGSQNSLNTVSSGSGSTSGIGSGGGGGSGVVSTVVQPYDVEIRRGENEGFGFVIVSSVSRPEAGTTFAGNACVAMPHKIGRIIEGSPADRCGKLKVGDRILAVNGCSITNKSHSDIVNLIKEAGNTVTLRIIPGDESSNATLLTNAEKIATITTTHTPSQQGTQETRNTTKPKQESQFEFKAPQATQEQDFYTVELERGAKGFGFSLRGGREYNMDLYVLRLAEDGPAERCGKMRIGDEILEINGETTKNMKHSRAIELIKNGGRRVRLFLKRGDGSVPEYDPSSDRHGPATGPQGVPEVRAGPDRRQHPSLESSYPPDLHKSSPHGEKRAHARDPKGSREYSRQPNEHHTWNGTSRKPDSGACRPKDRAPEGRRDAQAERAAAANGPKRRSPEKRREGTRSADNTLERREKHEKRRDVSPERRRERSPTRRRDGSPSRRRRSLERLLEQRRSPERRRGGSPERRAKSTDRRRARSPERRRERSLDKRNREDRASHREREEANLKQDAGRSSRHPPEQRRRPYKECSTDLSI
UniProt Q96GX5: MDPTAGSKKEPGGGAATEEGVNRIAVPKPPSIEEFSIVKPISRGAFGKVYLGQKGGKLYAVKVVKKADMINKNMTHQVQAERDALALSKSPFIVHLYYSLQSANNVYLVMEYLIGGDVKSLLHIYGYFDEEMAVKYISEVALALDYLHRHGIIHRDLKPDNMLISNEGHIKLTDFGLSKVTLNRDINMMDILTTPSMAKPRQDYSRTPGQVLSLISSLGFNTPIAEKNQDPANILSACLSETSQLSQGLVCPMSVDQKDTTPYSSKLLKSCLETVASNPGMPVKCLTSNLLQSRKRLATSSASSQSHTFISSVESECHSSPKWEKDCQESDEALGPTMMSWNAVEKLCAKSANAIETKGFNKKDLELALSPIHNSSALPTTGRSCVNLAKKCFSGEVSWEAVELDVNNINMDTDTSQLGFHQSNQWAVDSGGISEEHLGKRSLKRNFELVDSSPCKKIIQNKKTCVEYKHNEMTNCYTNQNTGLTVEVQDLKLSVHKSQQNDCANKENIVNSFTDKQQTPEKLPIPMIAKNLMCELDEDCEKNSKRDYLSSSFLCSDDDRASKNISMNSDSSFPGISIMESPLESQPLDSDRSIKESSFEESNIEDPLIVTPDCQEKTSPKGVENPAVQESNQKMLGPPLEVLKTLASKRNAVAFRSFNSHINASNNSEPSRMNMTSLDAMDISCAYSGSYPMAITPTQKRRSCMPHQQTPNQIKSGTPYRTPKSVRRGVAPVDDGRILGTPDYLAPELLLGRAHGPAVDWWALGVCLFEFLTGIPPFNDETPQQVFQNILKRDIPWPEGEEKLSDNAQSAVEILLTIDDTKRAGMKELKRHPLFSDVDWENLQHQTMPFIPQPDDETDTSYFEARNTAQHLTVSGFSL
UniProt Q96D05: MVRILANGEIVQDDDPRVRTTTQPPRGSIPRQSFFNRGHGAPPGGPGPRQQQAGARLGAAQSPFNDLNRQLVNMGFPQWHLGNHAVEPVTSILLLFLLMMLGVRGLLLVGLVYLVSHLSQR
UniProt Q96HE7: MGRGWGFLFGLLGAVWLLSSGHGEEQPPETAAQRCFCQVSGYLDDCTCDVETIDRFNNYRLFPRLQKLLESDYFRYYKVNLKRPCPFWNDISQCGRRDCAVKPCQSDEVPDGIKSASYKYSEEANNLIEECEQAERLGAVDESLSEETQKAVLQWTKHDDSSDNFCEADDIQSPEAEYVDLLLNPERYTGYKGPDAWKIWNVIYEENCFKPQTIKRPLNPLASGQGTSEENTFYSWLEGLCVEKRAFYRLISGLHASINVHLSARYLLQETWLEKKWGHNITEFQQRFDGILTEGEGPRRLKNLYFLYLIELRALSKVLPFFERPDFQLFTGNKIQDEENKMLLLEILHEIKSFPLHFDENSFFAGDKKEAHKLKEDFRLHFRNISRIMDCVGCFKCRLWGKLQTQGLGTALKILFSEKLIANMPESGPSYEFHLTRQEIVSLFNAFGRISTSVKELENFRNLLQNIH
UniProt Q96KF7: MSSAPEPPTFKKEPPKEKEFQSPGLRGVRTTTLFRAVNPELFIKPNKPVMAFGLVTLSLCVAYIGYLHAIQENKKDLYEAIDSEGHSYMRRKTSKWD

Target	NP40-soluble protein abundance (concentration: 1mM)	NP40-soluble protein abundance (concentration: 2mM)	NP40-soluble protein abundance (concentration: 4mM)	NP40-soluble protein abundance (concentration: 6mM)	NP40-soluble protein abundance (concentration: 8mM)	NP40-soluble protein abundance (concentration: 10mM)
PPWD1 (UniProt Q96BP3)	1.01 ± 0.074	1.03 ± 0.068	1.04 ± 0.068	1.04 ± 0.07	1.14 ± 0.056	1.16 ± 0.064
UniProt Q96EA4 and related entries	0.921 ± 0.084	0.909 ± 0.077	0.923 ± 0.095	0.925 ± 0.057	0.875 ± 0.047	0.903 ± 0.038
UniProt Q96JM7 and related entries	1.11 ± 0.088	1.09 ± 0.055	1.1 ± 0.044	1.09 ± 0.075	1.16 ± 0.038	1.14 ± 0.06
ATAD5 (UniProt Q96QE3)	1.19 ± 0.09	1.23 ± 0.1	1.31 ± 0.11	1.42 ± 0.27	1.23 ± 0.067	1.27 ± 0.072
SGTB (UniProt Q96EQ0)	0.944 ± 0.2	0.915 ± 0.13	0.918 ± 0.11	0.915 ± 0.1	0.867 ± 0.11	0.797 ± 0.17
EFHD2 (UniProt Q96C19)	0.931 ± 0.052	0.914 ± 0.018	0.911 ± 0.029	0.9471 ± 0.0072	0.897 ± 0.021	0.889 ± 0.023
UniProt Q96BN8	0.944 ± 0.031	0.936 ± 0.017	0.949 ± 0.03	0.885 ± 0.065	0.9266 ± 0.0065	0.921 ± 0.01
UniProt Q96GX9 and related entries	1.02 ± 0.014	0.9958 ± 0.0056	1.01 ± 0.023	0.973 ± 0.039	1 ± 0.022	0.9521 ± 0.0063
UniProt Q96K76-4	1 ± 0.043	1.01 ± 0.071	0.987 ± 0.068	0.97 ± 0.074	0.988 ± 0.056	0.964 ± 0.049
UniProt Q96EY1 and related entries	1.05 ± 0.042	1.05 ± 0.081	1.05 ± 0.067	1.06 ± 0.13	1.13 ± 0.12	1.22 ± 0.17
HSPBAP1 (UniProt Q96EW2)	0.947 ± 0.085	0.931 ± 0.034	0.902 ± 0.012	1.01 ± 0.1	1.02 ± 0.2	0.897 ± 0.027
RBMXL1 (UniProt Q96E39)	1.1 ± 0.069	1.2 ± 0.013	1.35 ± 0.039	1.461 ± 0.0086	1.56 ± 0.02	1.66 ± 0.095
UniProt Q96F07-2|E7EVJ5	1.02 ± 0.12	0.993 ± 0.098	1 ± 0.069	0.874 ± 0.12	1.02 ± 0.014	0.985 ± 0.079
MTFMT (UniProt Q96DP5)	1.12 ± 0.12	1.132 ± 0.00096	1.14 ± 0.06	1.09 ± 0.2	1.17 ± 0.044	1.21 ± 0.16
UniProt Q96GM5 and related entries	1.06 ± 0.033	1.05 ± 0.026	1.056 ± 0.0072	1.03 ± 0.016	1.07 ± 0.017	1.04 ± 0.036
RBM14 (UniProt Q96PK6)	0.997 ± 0.011	1.02 ± 0.018	1.034 ± 0.0033	1.09 ± 0.015	1.07 ± 0.028	1.06 ± 0.013
UniProt Q96JQ2	0.858 ± 0.2	0.9491 ± 0.0063	0.985 ± 0.14	0.997 ± 0.081	0.897 ± 0.086	0.852 ± 0.035
UniProt Q96EH3	1.05 ± 0.035	0.974 ± 0.061	0.979 ± 0.074	0.9176 ± 0.0085	0.933 ± 0.019	0.909 ± 0.084
WDYHV1 (UniProt Q96HA8)	0.936 ± 0.081	0.942 ± 0.053	0.883 ± 0.022	0.888 ± 0.1	0.935 ± 0.02	0.913 ± 0.035
SMG1 (UniProt Q96Q15)	1 ± 0.074	0.97 ± 0.044	1.01 ± 0.05	0.992 ± 0.032	1.03 ± 0.028	1.04 ± 0.012
UniProt Q96CG8 and related entries	0.936 ± 0.11	1.08 ± 0.12	0.979 ± 0.038	0.982 ± 0.014	0.932 ± 0.048	0.974 ± 0.017
IPO9 (UniProt Q96P70)	0.958 ± 0.0095	0.991 ± 0.014	0.934 ± 0.052	0.926 ± 0.02	0.91 ± 0.034	0.936 ± 0.014
ZC3HAV1L (UniProt Q96H79)	1 ± 0.081	0.983 ± 0.021	0.971 ± 0.037	0.975 ± 0.041	0.954 ± 0.05	0.968 ± 0.051
UniProt Q96S19 and related entries	1 ± 0.026	0.996 ± 0.042	1.01 ± 0.042	0.95 ± 0.064	0.987 ± 0.048	0.968 ± 0.083

Target	NP40-soluble protein abundance (concentration: 1mM)	NP40-soluble protein abundance (concentration: 2mM)	NP40-soluble protein abundance (concentration: 4mM)	NP40-soluble protein abundance (concentration: 6mM)	NP40-soluble protein abundance (concentration: 8mM)	NP40-soluble protein abundance (concentration: 10mM)
UniProt Q96QZ7 and related entries	1.12 ± 0.18	1.19 ± 0.084	1.26 ± 0.059	1.26 ± 0.068	1.21 ± 0.2	1.3 ± 0.21
DUS3L (UniProt Q96G46)	1.024 ± 0.007	1.022 ± 0.0065	1.03 ± 0.021	1.06 ± 0.041	1.03 ± 0.046	1 ± 0.03
GNPNAT1 (UniProt Q96EK6)	1.03 ± 0.038	1.04 ± 0.041	0.984 ± 0.06	1.03 ± 0.063	0.985 ± 0.045	0.993 ± 0.059
UniProt Q96GX5 and related entries	0.997 ± 0.069	0.962 ± 0.045	0.975 ± 0.065	1.02 ± 0.078	0.98 ± 0.037	0.947 ± 0.043
PURB (UniProt Q96QR8)	0.949 ± 0.0098	0.951 ± 0.041	0.911 ± 0.036	0.972 ± 0.022	0.892 ± 0.013	0.933 ± 0.041
UniProt Q96ED9 and related entries	0.99 ± 0.32	0.919 ± 0.074	1.05 ± 0.14	0.986 ± 0.2	1 ± 0.23	0.897 ± 0.038
SCLT1 (UniProt Q96NL6)	0.94 ± 0.029	0.934 ± 0.073	0.91 ± 0.046	0.913 ± 0.025	0.979 ± 0.015	0.937 ± 0.058
UniProt Q96D05 and related entries	0.932 ± 0.14	0.9585 ± 0.0053	0.943 ± 0.071	0.886 ± 0.013	0.842 ± 0.029	0.796 ± 0.2
UniProt Q96IU4 and related entries	0.971 ± 0.042	0.947 ± 0.02	0.927 ± 0.017	0.933 ± 0.051	0.916 ± 0.03	0.919 ± 0.013
MRPL53 (UniProt Q96EL3)	0.958 ± 0.09	0.89 ± 0.093	0.855 ± 0.11	0.86 ± 0.24	0.874 ± 0.14	0.788 ± 0.11
UniProt Q96BY6-3	1.04 ± 0.052	1.04 ± 0.028	1.03 ± 0.062	0.993 ± 0.039	1.05 ± 0.034	1.02 ± 0.019
UniProt Q96GJ1-2	1.18 ± 0.33	1.1 ± 0.13	1.22 ± 0.34	1.03 ± 0.29	1.12 ± 0.3	1.12 ± 0.091
RAB39B (UniProt Q96DA2)	1.06 ± 0.14	1.05 ± 0.15	1.08 ± 0.15	1 ± 0.18	1.06 ± 0.18	1 ± 0.12
UniProt Q96ES7	0.983 ± 0.12	1.02 ± 0.14	0.984 ± 0.13	1.01 ± 0.12	0.98 ± 0.078	1 ± 0.096
UniProt Q96ME1-4	0.946 ± 0.062	0.999 ± 0.16	0.985 ± 0.12	0.888 ± 0.044	0.998 ± 0.093	0.995 ± 0.075
PRMT6 (UniProt Q96LA8)	0.984 ± 0.073	0.9612 ± 0.0025	0.967 ± 0.026	0.988 ± 0.12	0.932 ± 0.11	1 ± 0.031
UniProt Q96N66 and related entries	1.03 ± 0.089	1.01 ± 0.071	0.963 ± 0.058	0.961 ± 0.086	1 ± 0.053	1 ± 0.049
UniProt Q96QE5 and related entries	0.976 ± 0.13	0.983 ± 0.091	1.02 ± 0.081	0.837 ± 0.065	1.18 ± 0.037	1.17 ± 0.15
UniProt Q96HE7	0.933 ± 0.042	0.94 ± 0.019	0.8866 ± 0.0082	0.9 ± 0.076	0.886 ± 0.031	0.912 ± 0.039
NUDCD1 (UniProt Q96RS6)	1.08 ± 0.12	1.02 ± 0.088	1.03 ± 0.097	0.968 ± 0.11	1.03 ± 0.03	0.987 ± 0.062
UniProt Q96KF7	0.977 ± 0.061	1.02 ± 0.016	1.04 ± 0.049	1.07 ± 0.037	0.998 ± 0.023	1 ± 0.022
UIMC1 (UniProt Q96RL1)	0.949 ± 0.095	0.967 ± 0.07	0.979 ± 0.064	1.01 ± 0.068	0.961 ± 0.046	0.977 ± 0.078
CHCHD1 (UniProt Q96BP2)	1.05 ± 0.054	0.989 ± 0.026	1 ± 0.09	1.05 ± 0.01	1.03 ± 0.02	0.918 ± 0.18

Taken from the listing (3 entries):
Target	NP40-soluble protein abundance (concentration: 1mM)	NP40-soluble protein abundance (concentration: 2mM)	NP40-soluble protein abundance (concentration: 4mM)	NP40-soluble protein abundance (concentration: 6mM)	NP40-soluble protein abundance (concentration: 8mM)	NP40-soluble protein abundance (concentration: 10mM)
UniProt Q96QZ7 and related entries	1.12 ± 0.18	1.19 ± 0.084	1.26 ± 0.059	1.26 ± 0.068	1.21 ± 0.2	1.3 ± 0.21
DUS3L (UniProt Q96G46)	1.024 ± 0.007	1.022 ± 0.0065	1.03 ± 0.021	1.06 ± 0.041	1.03 ± 0.046	1 ± 0.03
GNPNAT1 (UniProt Q96EK6)	1.03 ± 0.038	1.04 ± 0.041	0.984 ± 0.06	1.03 ± 0.063	0.985 ± 0.045	0.993 ± 0.059
